Measured values from article PMC12775124, “CUL4A-DDB1-DCAF10 is an N-recognin for N-terminally acetylated Src kinases” (Nature Communications, 2026).
No constants are given. Whether binding was seen depends on the method and setting. In cells and extracts the contact can be indirect. A yes stands for co-enrichment or nearness to the bait. Other partners may have been found.

By UniProt entry, the sequences of proteins in these tests, tags left out. Where a name states a change or a piece, a line headed by the entry shows the natural chain unless it says otherwise.
UniProt Q5BJF2: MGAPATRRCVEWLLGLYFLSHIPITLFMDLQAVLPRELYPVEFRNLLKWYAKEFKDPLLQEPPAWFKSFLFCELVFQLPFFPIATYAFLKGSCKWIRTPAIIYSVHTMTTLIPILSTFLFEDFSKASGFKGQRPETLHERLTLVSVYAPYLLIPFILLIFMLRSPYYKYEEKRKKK
UniProt Q9C0D3: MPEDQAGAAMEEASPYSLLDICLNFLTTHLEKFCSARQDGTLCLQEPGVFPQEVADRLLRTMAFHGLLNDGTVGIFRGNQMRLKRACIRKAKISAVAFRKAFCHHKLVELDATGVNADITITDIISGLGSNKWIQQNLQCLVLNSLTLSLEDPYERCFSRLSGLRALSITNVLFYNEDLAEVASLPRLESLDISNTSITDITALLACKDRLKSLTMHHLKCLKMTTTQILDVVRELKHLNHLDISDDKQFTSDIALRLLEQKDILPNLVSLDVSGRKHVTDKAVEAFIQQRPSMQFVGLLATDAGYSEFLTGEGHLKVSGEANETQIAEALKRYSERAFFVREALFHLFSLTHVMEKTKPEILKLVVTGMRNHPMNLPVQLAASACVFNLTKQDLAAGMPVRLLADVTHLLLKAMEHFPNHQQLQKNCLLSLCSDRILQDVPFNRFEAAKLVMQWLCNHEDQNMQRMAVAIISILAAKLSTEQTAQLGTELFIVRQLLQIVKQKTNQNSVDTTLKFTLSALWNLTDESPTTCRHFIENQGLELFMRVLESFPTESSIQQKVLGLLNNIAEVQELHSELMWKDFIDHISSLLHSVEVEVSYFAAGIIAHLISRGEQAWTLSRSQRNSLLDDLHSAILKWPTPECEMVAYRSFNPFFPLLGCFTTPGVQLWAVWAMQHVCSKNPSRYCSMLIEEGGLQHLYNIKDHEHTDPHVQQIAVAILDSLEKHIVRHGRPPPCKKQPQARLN

Biological target: T1, Nt-free TMEM97 peptide (UniProt Q5BJF2)
T1 sequence (peptide, biotin at the C-terminus after the Lys3 spacer): GAPATRRCVEKKK
Test: affinity purification with mass spectrometry; biotinylated 10-mer Nt-peptides on magnetic streptavidin beads incubated with HeLa lysate; retained proteins digested on bead and quantified label-free by LC-MS (DIA); pairwise comparison of two peptides; n = 3; only the target purified

With ZYG11B (from UniProt Q9C0D3 1-744) the binding was “binds”.
